Experimental data: US8507509B2, “Saturated and insaturated bi- or tricyclic aryloxyacetamine derivatives and their use as fungicides” (Syngenta Crop Protection LLC, priority 2007, dated 2013)
Some of these results come from one statement about several compounds together. For some assays here: At least one compound was matched to its structure with a doubt left.

Key:
Phytophthora infestans = format: in vivo; conditions: 200 ppm; tomato leaf disks; assessed four days after inoculation
Fusarium culmorum = Fusarium culmorum (root rot), liquid culture growth inhibition in nutrient broth; format: cell-based; conditions: 200 ppm; PDB broth, 24 C; inhibition of growth determined photometrically after 48 hrs
Experimental: Mycelia fragments or conidia suspensions of a fungus, prepared either freshly from liquid cultures of the fungus or from cryogenic storage, are directly mixed into nutrient broth. DMSO solutions of the test compound (max. 10 mg/ml) is diluted with 0.025% Tween20 by factor 50 and 10 μl of this solution is pipetted into a microtiter plate (96-well format) and the nutrient broth containing the fungal spores/mycelia fragments is then added to give an end concentration of the tested compound. The test plates are incubated at 24° C. and 96% rH in the dark. The inhibition of fungal growth is determined photometrically after 2-6 days and antifungal activity is calculated.
Fusarium culmorum (root rot): Conidia of the fungus from cryogenic storage were directly mixed into nutrient broth (PDB potato dextrose broth). After placing a (DMSO) solution of the test compounds into a microtiter plate (96-well format) the nutrient broth containing the fungal spores was added. The test plates were incubated at 24 C and the inhibition of growth was determined photometrically after 48 hrs.

Pythium ultimum = assay: Pythium ultimum/cotton (damping-off on cotton), seed treatment application; conditions: seed treatment of cotton seeds cv. Sure Grow 747 sown into infected soil; emergence and number of plants that wilt and die

SMILES	control of fungal infection, Phytophthora infestans (Phytophthora infestans)	control of fungal infection, Fusarium culmorum (Fusarium culmorum)	control of Pythium ultimum on cotton seeds (Pythium ultimum)
CON=C(C)CC(C)(C)NC(=O)C(Oc1ccc2ncc(I)cc2c1)SC (centres unmarked) [Compound No. 49, 2-(3-iodo-quinolin-6-yloxy)-N-{3-[(E & Z)-methoxy-imino]-1,1-dimethyl-butyl}-2-methylsulfanyl-acetamide]	≥ 60%		
CON=CC(C)(C#N)NC(=O)C(Oc1ccc2ncc(Br)cc2c1)SC (centres unmarked) [Compound No. 53, 2-(3-bromo-quinolin-6-yloxy)-N-(1-cyano-2-methoxyimino-1-methyl-ethyl)-2-methylsulfanyl acetamide]	≥ 60%	≥ 60%	
C#Cc1cnc2ccc(OC(OC)C(=O)NC(C)(C)C=NOC)cc2c1 (centres unmarked) [Compound No. 76, 2-(3-Ethynyl-quinolin-6-yloxy)-2-methoxy-N-(2-methoxyimino-1,1-dimethyl-ethyl)-acetamide]			at least 15%
CON=CC(C)(C)NC(=O)C(Oc1ccc2c(cc(Br)c[n+]2[O-])c1)SC (centres unmarked) [Compound No. 108, 2-(3-Bromo-1-oxy-quinolin-6-yloxy)-N-(2-methoxyimino-1,1-dimethyl-ethyl)-2-methylsulfanyl-acetamide]	≥ 60%		
